Assay results as given in the supplement of paper PMC11732987, “Enantioselective OTUD7B fragment discovery through chemoproteomics screening and high-throughput optimisation” (Communications Chemistry, 2025).
The list shows a part of the results. The data scatter; read single values as rough.

Columns and labels:
[1] = compound: ClCC(=O)N[C@@H]1CCCc2ccccc12; experiment: log2 mean competition ratio of IA-DTB cysteine labelling (DMSO/compound) (log2 ratio); higher = stronger cysteine engagement by compound; details: treatment time: 4 h, cell line lysate: HEK293T
Experimental: (§1)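 IA-DTB competitive cysteine chemoproteomics in HEK293T RIPA lysate. Lysates were treated with compound 29 or 30 at 50 or 200 µM for 4 h, then IA-DTB (500 µM, 1 h), trypsin-digested, NeutrAvidin-enriched and analysed by diaPASEF. Competition ratio = intensity DMSO / intensity compound (n=4 treated, n=64 DMSO); binding: mean log2 CR ≥ 1 and p ≤ 0.05 plus QC filters. Target is the cysteine site.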

[2] = compound: ClCC(=O)N[C@H]1CCCc2ccccc12; experiment: as above; details: treatment time: 4 h, cell line lysate: HEK293T
Experimental: as §1

Row | Target | log2 mean competition ratio ([1]; 50 µM) | log2 mean competition ratio ([1]; 200 µM) | log2 mean competition ratio ([2]; 50 µM) | log2 mean competition ratio ([2]; 200 µM)
1 | DNAAF2 C380 (UniProt Q9NVR5) | -0.318 | 0.212 | -0.284 | -0.256
2 | DOCK4 C1723 | 0.0886 | -0.0966 | 0.223 | -0.109
3 | DHX40 C641 (UniProt Q8IX18) | -0.00604 | 0.0882 | -0.0853 | 0.11
4 | DLC1 C1504 (UniProt Q96QB1) | -0.32 | -0.0682 | -0.264 | 0.111
5 | DHX32 C8 (UniProt Q7L7V1) | -0.25 | 0.0591 | 0.122 | -0.0156
6 | DONSON C190 (UniProt Q9NYP3) | 0.083 | 0.134 | -0.0553 | 0.134
7 | DPM3 C67 (UniProt Q9P2X0) | 0.133 | 0.0783 | 0.0272 | -0.0272
8 | DMD C3319 (UniProt P11532) | 0.485 | -0.128 | 0.933 | 0.199
9 | DICER1 C1153 (UniProt Q9UPY3) | 0.0144 | 0.0907 | -0.142 | 0.129
10 | DOCK1 C1157 (UniProt Q14185) | 0.169 | -0.367 | 0.479 | -0.15
11 | DIAPH2 C182 (UniProt O60879) | 0.129 | 0.15 | -0.233 | 0.0236
12 | DHX30 C484 (UniProt Q7L2E3) | 0.0042 | -0.0394 | -0.148 | -0.0442
13 | DOLK C99 (UniProt Q9UPQ8) | -0.15 | -0.242 | -0.205 | -0.109
14 | DNAJC11 C518 (UniProt Q9NVH1) | -0.0176 | -0.105 | -0.245 | -0.0854
15 | DHX29 C1059 (UniProt Q7Z478) | 0.0184 | 0.0553 | -0.0869 | 0.00453
16 | DHX29 C1025 (UniProt Q7Z478) | -0.00196 | -0.242 | -0.126 | -0.0788
17 | DHX38 C618 (UniProt Q92620) | -0.0535 | 0.0339 | -0.33 | -0.271
18 | DOHH C200 (UniProt Q9BU89) | 0.276 | -0.0541 | 0.175 | -0.36
19 | DHX29 C990 (UniProt Q7Z478) | -0.199 | 0.17 | 0.147 | 0.158
20 | DHX36 C234 (UniProt Q9H2U1) | -0.333 | 0.0508 | -0.139 | -0.095
21 | DOK1 C463 (UniProt Q99704) | 0.192 | -0.0145 | -0.025 | 0.00572
22 | DNAJC10 C186 (UniProt Q8IXB1) | -0.443 | -0.402 | -0.374 | -0.189
23 | DHX34 C189 (UniProt Q14147) | 0.11 | -0.0971 | 0.252 | -0.0331
24 | DNAJB4 C7 (UniProt Q9UDY4) | 0.0625 | 0.286 | -0.0386 | 0.124

In a second layout: results already given
Row	Target	log2 mean competition ratio ([1]; 50 µM)	log2 mean competition ratio ([1]; 200 µM)	log2 mean competition ratio ([2]; 50 µM)	log2 mean competition ratio ([2]; 200 µM)
1	DNAAF2 C380 (UniProt Q9NVR5)	-0.318	0.212	-0.284	-0.256
2	DOCK4 C1723	0.0886	-0.0966	0.223	-0.109
3	DHX40 C641 (UniProt Q8IX18)	-0.00604	0.0882	-0.0853	0.11
5	DHX32 C8 (UniProt Q7L7V1)	-0.25	0.0591	0.122	-0.0156
6	DONSON C190 (UniProt Q9NYP3)	0.083	0.134	-0.0553	0.134
9	DICER1 C1153 (UniProt Q9UPY3)	0.0144	0.0907	-0.142	0.129
13	DOLK C99 (UniProt Q9UPQ8)	-0.15	-0.242	-0.205	-0.109
16	DHX29 C1025 (UniProt Q7Z478)	-0.00196	-0.242	-0.126	-0.0788
17	DHX38 C618 (UniProt Q92620)	-0.0535	0.0339	-0.33	-0.271
20	DHX36 C234 (UniProt Q9H2U1)	-0.333	0.0508	-0.139	-0.095
21	DOK1 C463 (UniProt Q99704)	0.192	-0.0145	-0.025	0.00572
24	DNAJB4 C7 (UniProt Q9UDY4)	0.0625	0.286	-0.0386	0.124

The results go on.

Row | Target | log2 mean competition ratio ([1]; 50 µM) | log2 mean competition ratio ([1]; 200 µM) | log2 mean competition ratio ([2]; 50 µM) | log2 mean competition ratio ([2]; 200 µM)
25 | DOK1 C70 (UniProt Q99704) | 0.19 | -0.238 | 0.407 | -0.189
26 | DPY19L3 C36 (UniProt Q6ZPD9) | -0.143 | 0.431 | -0.115 | 0.315
27 | DOCK11 C903 | -0.0114 | -0.0531 | -0.206 | -0.163
28 | DHX29 C1161 (UniProt Q7Z478) | 0.266 | -0.0837 | 0.474 | -0.0521
29 | DHX29 C659 (UniProt Q7Z478) | 0.515 | 0.0505 | 0.492 | 0.0525
30 | DHX40 C573 (UniProt Q8IX18) | 0.217 | -0.0569 | 0.202 | 0.186
31 | DIXDC1 C600 | 0.124 | 0.0878 | -0.151 | -0.102
32 | DICER1 C1354 (UniProt Q9UPY3) | 0.129 | -0.072 | 0.0833 | -0.0348
33 | DMXL1 C191 (UniProt Q9Y485) | -0.0368 | -0.0887 | -0.0627 | -0.17
34 | DNM1 C169 (UniProt Q05193) | 0.0569 | -0.00241 | 0.415 | 0.167
35 | DGLUCY C265 (UniProt Q7Z3D6) | -0.267 | -0.0227 | -0.128 | -0.0955
36 | DHX34 C917 (UniProt Q14147) | -0.153 | 0.161 | -0.258 | 0.147
37 | DNAAF5 C138 (UniProt Q86Y56) | 0.0635 | 0.422 | 0.0528 | 0.394
38 | DHX37 C680 (UniProt Q8IY37) | 0.0691 | 0.0721 | 0.0604 | -0.0221
39 | DHX37 C903 (UniProt Q8IY37) | -0.0275 | -0.0328 | -0.251 | -0.147
40 | DLG5 C1240 (UniProt Q8TDM6) | -0.241 | 0.235 | -0.692 | 0.0938
41 | DOCK7 C388 (UniProt Q96N67) | -0.248 | -0.13 | -0.177 | -0.0707
42 | DENND4A C1698 (UniProt Q7Z401) | 0.315 | -0.0858 | 0.0596 | 0.127
43 | DNMT1 C62 (UniProt P26358) | 0.489 | -0.189 | 0.583 | 0.00346
44 | DNM2 C424 (UniProt P50570) | 0.415 | -0.366 | 1.35 | -0.399
45 | DHX9 C469 (UniProt Q08211) | -0.0832 | -0.117 | 0.272 | 0.0458
46 | DGKQ C607 (UniProt P52824) | -0.0058 | 0.0712 | -0.294 | 0.317
47 | DHX30 C461 (UniProt Q7L2E3) | 0.0786 | 0.631 | -0.261 | 0.186
